Results published in PMC7959726.
No constants are given. Whether binding was seen depends on the method and setting. Some results given as binding are weak or reduced against the parent protein; the word gives no strength. Sequences can lack the tags named with a protein.

Tests used:
[1] = target: T1, C-terminal domain of CYP38 (239-437) with the quadruple mutation, two-hybrid fusion (Arabidopsis) (UniProt Q9SSA5); assay: two-hybrid; yeast strain AH109; CYP38 forms in pGBKT7 as baits, CP47 E-loop in pGADT7 as prey; growth of dilutions (1/10, 1/100, 1/1,000) on -LTAH medium
T1 sequence: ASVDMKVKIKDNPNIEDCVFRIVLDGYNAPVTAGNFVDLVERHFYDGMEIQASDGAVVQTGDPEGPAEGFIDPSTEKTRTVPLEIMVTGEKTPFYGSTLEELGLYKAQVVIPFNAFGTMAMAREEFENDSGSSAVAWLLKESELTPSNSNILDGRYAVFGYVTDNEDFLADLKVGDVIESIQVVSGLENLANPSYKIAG

[2] = target: T2, C-terminal domain of CYP38 (239-437), two-hybrid fusion (Arabidopsis) (UniProt Q9SSA5); assay: as above
T2 sequence: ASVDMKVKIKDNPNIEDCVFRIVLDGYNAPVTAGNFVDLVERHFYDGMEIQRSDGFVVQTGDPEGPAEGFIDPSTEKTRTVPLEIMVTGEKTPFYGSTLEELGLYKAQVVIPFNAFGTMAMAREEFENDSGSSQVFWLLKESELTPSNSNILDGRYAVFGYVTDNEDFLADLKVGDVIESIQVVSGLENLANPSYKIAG

B1: N-terminal domain of CYP38 (92-215), two-hybrid fusion (domain or fragment, UniProt Q9SSA5 92-215)
chain: SVLISGPPIKDPEALLRYALPIDNKAIREVQKPLEDITDSLKIAGVKALDSVERNVRQASRTLQQGKSIIVAGFAESKKDHGNEMIEKLEAGMQDMLKIVEDRKRDAVAPKQKEILKYVGGIEE
For B1, the binding [1] was “binds” and the binding [2] was “binds”.
